Reference: article doi:10.1101/2025.08.19.671066
No constants are given. Whether binding was seen depends on the method and setting. Some entries that bind do so weakly or less than the wild type.

Amino acid sequences for entries named in this document (tags omitted).
UniProt P50536: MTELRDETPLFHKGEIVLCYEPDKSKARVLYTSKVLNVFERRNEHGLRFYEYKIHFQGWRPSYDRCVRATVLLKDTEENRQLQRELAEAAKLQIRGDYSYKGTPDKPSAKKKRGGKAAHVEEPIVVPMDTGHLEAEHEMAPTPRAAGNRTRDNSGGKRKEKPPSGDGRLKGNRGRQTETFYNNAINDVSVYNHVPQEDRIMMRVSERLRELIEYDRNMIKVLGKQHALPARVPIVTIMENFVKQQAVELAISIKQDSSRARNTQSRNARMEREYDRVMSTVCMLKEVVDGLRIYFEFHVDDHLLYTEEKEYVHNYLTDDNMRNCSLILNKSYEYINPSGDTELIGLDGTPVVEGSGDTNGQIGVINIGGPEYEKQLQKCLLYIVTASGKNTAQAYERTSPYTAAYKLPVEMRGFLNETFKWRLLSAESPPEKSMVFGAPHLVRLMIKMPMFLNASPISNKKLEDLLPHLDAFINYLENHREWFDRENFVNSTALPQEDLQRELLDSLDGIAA

T1: Mof (UniProt O02193)
T1 sequence: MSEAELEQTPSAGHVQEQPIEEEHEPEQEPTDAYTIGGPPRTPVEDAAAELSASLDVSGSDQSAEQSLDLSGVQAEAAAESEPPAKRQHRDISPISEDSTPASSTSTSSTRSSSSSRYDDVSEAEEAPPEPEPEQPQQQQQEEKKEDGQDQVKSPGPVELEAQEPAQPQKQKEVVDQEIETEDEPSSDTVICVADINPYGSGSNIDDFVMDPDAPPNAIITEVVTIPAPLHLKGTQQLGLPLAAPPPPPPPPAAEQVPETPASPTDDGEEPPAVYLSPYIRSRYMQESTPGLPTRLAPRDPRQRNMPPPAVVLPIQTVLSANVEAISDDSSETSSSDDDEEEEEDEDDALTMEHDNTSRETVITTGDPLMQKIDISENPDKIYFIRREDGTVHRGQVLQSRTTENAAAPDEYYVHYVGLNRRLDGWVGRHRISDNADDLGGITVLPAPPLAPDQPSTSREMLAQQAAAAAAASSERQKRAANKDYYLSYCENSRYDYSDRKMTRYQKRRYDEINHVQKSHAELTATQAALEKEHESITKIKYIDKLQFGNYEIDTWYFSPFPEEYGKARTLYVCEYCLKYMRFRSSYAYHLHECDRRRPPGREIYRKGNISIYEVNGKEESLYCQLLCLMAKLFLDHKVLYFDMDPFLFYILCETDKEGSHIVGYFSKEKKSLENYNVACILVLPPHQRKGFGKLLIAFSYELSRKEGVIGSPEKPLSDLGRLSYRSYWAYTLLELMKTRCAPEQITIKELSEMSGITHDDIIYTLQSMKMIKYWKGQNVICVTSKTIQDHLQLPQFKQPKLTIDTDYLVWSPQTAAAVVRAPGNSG


Target: T1, Mof
Test: co-purification by affinity chromatography

Row | Molecule | binding
1 | Msl3 (from UniProt P50536 1-512) | binds
2 | Msl1 (protein, UniProt P50535 1-1039) MDKRFKWPPKKRANYLESPYPHIPSRGRQRNLHGHPNQTQHLHQHPGKIYERQQYGNGRGGHGGGNNNYRKLLHSLPAEHGGGAMAPPSSGGTVCAGADMVKLISENNNLRRMVMLNLNLMQEQTDSIAAKDKELDDQSAKMSVVKAQNEELKQAVAQLEAANQELCKQLRRKNQRRNDNDDDDDDPPLPPAAPQQKLIRCHAETQTVFREREQGTQTIDAQPQFANALPRGINMKESPALDHHAGAVTNQPASKRSESKGRGEFNGKKVSTFILQRMNQDFEHHIHEQTEVAEEHEMEAHKEQISQEEDQLVAEEDHLHMQEVHTEEVVGGDIFHDALESIEMEVVTEELVDMEEHGQSVDANGHIEEDDDEDDEDDENSDKDDDSEEDDYPWMHSDADVNARTEEELWQNQNYLLELDPTEEKTCAPSAHSTPNHQQKSSTQAEIRKEGNQNRITEKLLQLKPEPMVDALEAPILPKWVAFKKKDKEHESVPESPEVPKQQPHQEDAIVDHNAIKNQLEVPKPDLKPKDQPKDEQRQDGQLDVRVEPQEDVRKVQKETLKRQPEDAPKHLPKAVAPKVTKTSSRESTLPKANTADIKDAPAQKVIANHQSTKTQTDPVKTQRLQVKIRQYEMHPDMRTGSSAPSDIRKQKNVDPVSTPETKTIKSKSMLVNDKKTTSETSQSPDQEIDVETVRRKLAEHLKKELLSQSHSSQVTLKKIRERVATNLIYPPPSAPVSSTTITPAPTPSTTPTPGSTPQHAVTSSMDQEISAAKSKSKAAEQIATPLTPQSNSSVSSTTSTIRKTLNNCSPHTYSKATARSGKLQSRFRTATFPYSTRTWEDQEFHCDNEFFLEEADELLADNPSLEIPKWRDVPVPPSSDKIDTELLSDATFERRHQKYVKDEVDRKCRDARYMKEQIRLEQLRMRRNQDEVLVALDPLRASTFYPLPEDIEAIQFVNEVTVQAFGENVVNMEARDDFGVPWVDAIEAPTSIARSKALAEPVATLASKKIPTTAAEARHQENHSSYVFPKRRKRQKNR | binds
3 | Msl2 (protein, UniProt P50534 1-773) MAQTAYLKVTRIAMRSASNLSKRRVEELNSGLGELRQLLSCVVCCQLLVDPYSPKGKRCQHNVCRLCLRGKKHLFPSCTQCEGCSDFKTYEENRMMAAQLLCYKTLCVHLLHSALFGELAGMRPQVARELVPRIKLPPKTTQEFIREGSNISDTFDIFLPQPDLPFLKDMPTSLPAETPPTSAVTTPELPYDHHLNISDIEAEAAATAEQGHFSPLPLLPTGSRMGMLSHAGQIVIATESSESGFMDQAWTDQVDLSGTVSVSKYTNSGNNFAVSYVMPTSATTKFDPQELQIGQVVQMADSTQLAVLAAVEETVETSTQLTVLSTTVEETVETSTQLEVLTSAEEPNEISDQLANLQVEESDEALVEETVEEAEGTSIPSEVVAEHMEEDQHLDVHTSQSPTQTEMEEAVEEHVATKTQLGHVQTELQDAESLQKDFEDAKAAAEEAKEKEKDLHAISAELQKEDSDEPTLKRKRTRTLKASQAAKIEPVPSEVKTKVQSGKGALRRIRGKDKEEKVKPPKPKCRCGISGSSNTLTTCRNSRCPCYKSYNSCAGCHCVCCKNPHKEDYVESDEDDDLEDFEMPKDVPEPMTQSEEPVVAEPRQEENSMAPPDSSAPISLVPLNNLQQSQHPLVLVQNEKGEYQGFNIFQGSKPLDPVTVGFTIRVQLQHTDGFGSLPQYAYIMPTIDPPNPPAPSLSPPPPPAPDREVIEPPAKKFRTSRTRRGRANFSALDTVDELVSGGSRSNSAAGDRSSATDNAHSLFEEIMSGSDDL | binds
